# From PubChem BioAssay AID2685 (National Center for Advancing Translational Sciences (NCATS), 2010)
# Hit rate of the full screen: of about 320,000 compounds, about 2,100 (0.66%) were called active. Inconclusive means that the source gave no clear call. Such entries were picked first, then a sample of the others. Calls follow the shape of the dose curve; as a rule, active = well fitted inhibition curve with a large enough effect in the signal ratio, with a control signal flat (not every such curve was filed as active); inconclusive = small, poorly fitted or top-dose-only effect, or effect the other way, or a change in a side signal; inactive = flat fitted curve, though single readings scatter; the % refers to the signal ratio. Potencies of inconclusive entries are doubtful fits and often do not repeat.
# Test: qHTS Assay for Lipid Storage Modulators in Drosophila S3 Cells
# Settings: BODIPY lipid droplet fluorescence, 18-24 h, cells fed with added oleic acid; lipid storage change, negative = inhibition: at 46.1 µM (top of the series) unless noted
# How it was run: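 Drosophila S3 cells got compounds at several concentrations plus oleic acid (400 uM solution). Laser-scanning cytometry with 488 nm excitation read lipid droplets at 500-530 nm and cells at 575-640 nm. Percent activity was relative to 20 uM Triacsin C.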
# % is scaled to controls: 0 for no effect and ±100 for the full control effect; potency is read from the fitted curve at half-maximal effect.
Compound,"lipid storage change, negative = inhibition",Potency
COc1ccc(NS(=O)(=O)c2cccc(C(=O)N/N=C(\C)c3ccc(-n4ccnc4)cc3)c2)cc1,inactive,–
CCCCNC(=O)C1CCN(C/C(C)=C/c2ccccc2)CC1,inconclusive: -30%,–
Cc1cc(C)nc(SCNC(=O)c2ccc(F)cc2)n1,inconclusive: -26.8%,–
O=[N+]([O-])c1ccccc1Oc1ccc(C(F)(F)F)cn1,inconclusive: -0.283%,–
COCCN1CC(=O)N(c2cccc(C)c2C)C(c2ccc(Cl)cc2)C1=O (centres undefined),inconclusive: -10.8%,–
CCOc1ccc(C2=NNC(c3cccs3)=Nc3ccc(OC)cc32)cc1OCC,–,"inconclusive: 29.1 µM [cytotoxic, single point]"
CC(C)(C)c1ccc(-c2noc(-c3ccc4c(c3)CCO4)n2)cc1,–,"inconclusive: 20.6 µM [activator, partial curve]"
Cc1ccc(C)c(NC(=O)C(CC(=O)O)Cc2ccccc2)c1 (centres undefined),–,"inconclusive: 9.2 µM [falling, partial curve]"
C/C(=N\NC(=O)c1c[nH]c2ccccc12)c1ccco1,–,"inconclusive: 16.4 µM [rising, partial curve]"
C=CCn1c(SCC(=O)Nc2c(C)n(C)n(-c3ccccc3)c2=O)nc2sc(C)c(-c3ccccc3)c2c1=O,inconclusive: -43.1%,–
CN1CCN(c2ccc(NC(=O)c3ccc(Br)o3)cc2)CC1,–,"inconclusive: 0.326 µM [activator, full curve, poor fit]"
NC(=O)Cn1cc(/C=N/NC(=O)c2ccc(Cn3cc(Cl)cn3)o2)c(-c2ccccc2)n1,–,"inconclusive: 29.1 µM [activator, partial curve]"
COc1cc(-c2noc(C3CCCN(C(=O)c4ccccc4)C3)n2)cc(OC)c1OC (centres undefined),inconclusive: -28.3%,–
C=CCNC(=S)NS(=O)(=O)c1cccs1,inconclusive: 18.4%,–
CCNC(=S)NS(=O)(=O)c1ccccc1,inconclusive: -3.42%,–
Cc1cccc(N(CC(=O)NCC2CCCO2)C(=O)CNS(=O)(=O)c2ccc(Cl)cc2)c1 (centres undefined),inconclusive: 23.7%,–
Cc1ccc(C(=O)NC(C)c2ccc3c(c2)OCO3)s1 (centres undefined),inconclusive: 10.7%,–
COc1cc(/C=C/C(=O)O)cc(S(=O)(=O)Nc2ccc3c(c2)OCO3)c1OC,inconclusive: -59.9%,–
CCCS(=O)(=O)c1c(S(=O)(=O)CCC)c2c(N)cccn2c1C(=O)c1ccc(F)cc1,–,"inconclusive: 3.66 µM [activator, single point]"
CSc1nnc2c3c4c(sc3c(=O)n(-c3ccccc3)n12)CC(C)(C)OC4,inconclusive: -1.1%,–
C=CCSc1nc2nc(C)cc(C)n2n1,inconclusive: 51.5%,–
COc1ccc(C(=O)Nn2cnc3scc(-c4cccs4)c3c2=O)c(O)c1,–,"inconclusive: 1.84 µM [activator, partial curve]"
COc1ccc(C)cc1S(=O)(=O)N(C)CC(=O)NC1CCCCCC1,–,"inconclusive: 0.13 µM [rising, full curve, poor fit]"
COc1ccc(C2C(C(=O)N3CCCC3)c3cc(OC)c(OC)cc3C(=O)N2C)cc1 (centres undefined),inconclusive: 103%,–
O=C1OCC2=C1C(c1ccc(Cl)cc1)CC(=O)N2c1ccc(F)cc1 (centres undefined),inconclusive: -21.6%,–

Compound,"lipid storage change, negative = inhibition",Potency
O=C(CSc1nnnn1-c1cccc(C(=O)O)c1)NC(c1ccccc1)c1ccccc1,inconclusive: 8.74%,–
CCN(CC)C(=O)c1ccc(CS(=O)(=O)c2ccc(Br)cc2)cc1,inconclusive: 35.3%,–
O=C1NCCc2c1[nH]c1ccc([N+](=O)[O-])cc21,inconclusive: -24%,–
C[C@@H]1CC[C@H]2C(=O)N3[C@@H](CC[C@@H](C)[C@@H]3c3ccc(Br)cc3)C(=O)N2[C@H]1c1ccc(Br)cc1,–,"inconclusive: 16.4 µM [activator, partial curve, poor fit]"
COc1ccc(OC)c(C2C=C(c3ccc(C)c(C)c3)Nc3nnnn32)c1 (centres undefined),–,"inconclusive: 1.46 µM [activator, partial curve]"
Cc1ccc(S(=O)(=O)c2cc(Nc3ccccc3)ccc2O)cc1,inconclusive: -81.9%,–
O=C(CC(c1ccccc1)c1cc(Br)ccc1O)NCCCN1CCOCC1 (centres undefined),inconclusive: -7.54%,–
CC(C)(C)c1ccc(C(=O)NNc2cc(N3CCOCC3)nc(N3CCOCC3)n2)cc1,inconclusive: -81.6%,–
O=C(N1CCN(Cc2ccccc2)CC1)C(Cl)(Cl)Cl,inconclusive: 31.9%,–
CNC(=O)CN(c1cccc2ccccc12)S(C)(=O)=O,inconclusive: -96%,–
COc1ccccc1N1CCN(S(=O)(=O)c2cccc3nsnc23)CC1,inconclusive: -19.8%,–
CCOC(=O)N1CCN(C(=O)CN(c2cccc(C(F)(F)F)c2)S(=O)(=O)c2ccccc2)CC1,inconclusive: -0.0975%,–
CCOc1cc(-c2nccc3cc(OC)c(OC)cc23)cc(OCC)c1OCC,inconclusive: -65.2%,–
N#CC1=C(N)Oc2cc3ccccc3cc2C1c1cccnc1 (centres undefined),inconclusive: 16.4%,–
O=c1/c(=C/c2ccc(O)cc2)sc2n1CCCN=2,inconclusive: -12.5%,–
Cc1ccc(CCNC(=O)CN(C)S(=O)(=O)c2ccc3c(c2)c(=O)n(C)c(=O)n3C)cc1,–,"inconclusive: 2.91 µM [rising, single point]"
O=C(CCSCCC(=O)Nc1c(F)c(F)c(F)c(F)c1F)Nc1c(F)c(F)c(F)c(F)c1F,inconclusive: -15%,–
O=C(Nc1cc2c(oc1=O)CCCC2=O)c1cccc(Cl)c1,inconclusive: 4.62%,–
Cc1ccc(C(=O)NCCc2c[nH]c3ccccc23)s1,inconclusive: -186%,–
CC(C)CC(C(=O)OCC(=O)c1c(N)n(C)c(=O)n(C)c1=O)N1C(=O)c2ccccc2C1=O (centres undefined),inconclusive: -39%,–
CC(C)(C)n1nnnc1C(c1ccncc1)N1CCCCCC1 (centres undefined),inconclusive: 16.5%,–
Cc1cc(S(=O)(=O)N2CCCC2)ccc1OCC(=O)Nc1ccccc1,inconclusive: 34.6%,–
Cc1nnc(NC(=O)CCSCCC(=O)Nc2nnc(C)s2)s1,inconclusive: -23%,–
COc1ccc(C(=O)Nc2c(Cl)cc(Cl)cc2C(=O)N2CCOCC2)cc1,inconclusive: -9.33%,–

# Reprinted at random: two compounds from above, in no set order.
Compound,"lipid storage change, negative = inhibition",Potency
COc1ccc(NS(=O)(=O)c2cccc(C(=O)N/N=C(\C)c3ccc(-n4ccnc4)cc3)c2)cc1,inactive,–
COc1ccc(C)cc1S(=O)(=O)N(C)CC(=O)NC1CCCCCC1,–,"inconclusive: 0.13 µM [rising, full curve, poor fit]"
